Results as given in patent US20150329644A1.
No constants are given. Whether binding was seen depends on the method and setting. Some binding calls cover weakened binding; strength is not graded here. Tags and fused reporters may be left off the sequences shown.

Sequences of proteins named here, by UniProt entry; tags and fusion partners are left off. A change or cut given only in a name is not applied to a line headed by its entry.
UniProt Q49A26: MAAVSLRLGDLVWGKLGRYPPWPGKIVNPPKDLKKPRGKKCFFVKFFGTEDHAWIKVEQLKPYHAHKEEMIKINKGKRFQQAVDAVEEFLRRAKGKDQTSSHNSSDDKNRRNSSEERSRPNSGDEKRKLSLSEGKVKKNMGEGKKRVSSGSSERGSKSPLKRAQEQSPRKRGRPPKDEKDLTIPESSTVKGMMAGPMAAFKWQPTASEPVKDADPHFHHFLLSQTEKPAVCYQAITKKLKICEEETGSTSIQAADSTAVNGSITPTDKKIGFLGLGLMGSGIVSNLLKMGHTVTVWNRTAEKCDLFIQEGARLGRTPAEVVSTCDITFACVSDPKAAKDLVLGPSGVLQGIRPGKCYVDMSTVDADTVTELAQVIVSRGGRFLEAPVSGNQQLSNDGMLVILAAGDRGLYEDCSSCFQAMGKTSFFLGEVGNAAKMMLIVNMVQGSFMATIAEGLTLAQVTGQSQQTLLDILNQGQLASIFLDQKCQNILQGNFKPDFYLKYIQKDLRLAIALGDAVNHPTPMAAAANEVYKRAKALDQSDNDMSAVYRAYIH

How the values were obtained:
[1] = molecular target: T1, FLAG-HA tagged LSD2 bait protein (stably expressed in HeLa, tandem affinity purified) (human) (UniProt Q8NB78); experiment: immunoblot of tandem affinity purified LSD2 complex (FIG. 1B; association in a complex)
T1 sequence (looked up): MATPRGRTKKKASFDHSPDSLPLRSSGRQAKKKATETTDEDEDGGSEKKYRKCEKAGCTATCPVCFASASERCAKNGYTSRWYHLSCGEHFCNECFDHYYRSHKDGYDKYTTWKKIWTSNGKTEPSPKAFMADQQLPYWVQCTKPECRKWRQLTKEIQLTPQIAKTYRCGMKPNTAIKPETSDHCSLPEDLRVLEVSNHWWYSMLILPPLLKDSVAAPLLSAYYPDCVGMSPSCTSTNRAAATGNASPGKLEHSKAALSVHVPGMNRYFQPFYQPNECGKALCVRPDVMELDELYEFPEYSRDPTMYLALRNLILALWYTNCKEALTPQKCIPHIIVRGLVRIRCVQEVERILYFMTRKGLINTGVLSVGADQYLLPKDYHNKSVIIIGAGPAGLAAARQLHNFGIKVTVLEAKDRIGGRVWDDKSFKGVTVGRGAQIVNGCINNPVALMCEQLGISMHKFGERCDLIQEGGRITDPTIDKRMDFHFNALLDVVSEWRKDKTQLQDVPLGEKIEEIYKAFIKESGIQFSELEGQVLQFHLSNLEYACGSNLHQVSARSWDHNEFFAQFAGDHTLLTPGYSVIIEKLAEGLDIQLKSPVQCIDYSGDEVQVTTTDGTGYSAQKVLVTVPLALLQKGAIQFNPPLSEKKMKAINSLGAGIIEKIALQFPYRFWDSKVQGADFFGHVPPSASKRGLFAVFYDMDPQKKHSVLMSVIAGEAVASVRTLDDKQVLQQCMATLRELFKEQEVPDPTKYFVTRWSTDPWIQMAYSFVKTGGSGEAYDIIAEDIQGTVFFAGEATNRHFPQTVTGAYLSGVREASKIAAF

[2] = molecular target: T1, FLAG-HA tagged LSD2 bait protein (stably expressed in HeLa, tandem affinity purified) (human); experiment: immunoblot of tandem affinity purified LSD2 complex from HeLa (association in a complex)
[3] = molecular target: T1, FLAG-HA tagged LSD2 bait protein (stably expressed in HeLa, tandem affinity purified) (human); experiment: immunoblot of tandem affinity purified LSD2 and LSD1 complexes (FIG. 13B; association in a complex)

Measured: binding

Endogenous NPAC (human cells) (from UniProt Q49A26 1-553)
binds: all assays above
